Percent effect of library compounds

Protein sequences, listed by entry. Tags and fused reporters are not part of them. Residues count along the entry.
UniProt Q8IDJ8, 1-583: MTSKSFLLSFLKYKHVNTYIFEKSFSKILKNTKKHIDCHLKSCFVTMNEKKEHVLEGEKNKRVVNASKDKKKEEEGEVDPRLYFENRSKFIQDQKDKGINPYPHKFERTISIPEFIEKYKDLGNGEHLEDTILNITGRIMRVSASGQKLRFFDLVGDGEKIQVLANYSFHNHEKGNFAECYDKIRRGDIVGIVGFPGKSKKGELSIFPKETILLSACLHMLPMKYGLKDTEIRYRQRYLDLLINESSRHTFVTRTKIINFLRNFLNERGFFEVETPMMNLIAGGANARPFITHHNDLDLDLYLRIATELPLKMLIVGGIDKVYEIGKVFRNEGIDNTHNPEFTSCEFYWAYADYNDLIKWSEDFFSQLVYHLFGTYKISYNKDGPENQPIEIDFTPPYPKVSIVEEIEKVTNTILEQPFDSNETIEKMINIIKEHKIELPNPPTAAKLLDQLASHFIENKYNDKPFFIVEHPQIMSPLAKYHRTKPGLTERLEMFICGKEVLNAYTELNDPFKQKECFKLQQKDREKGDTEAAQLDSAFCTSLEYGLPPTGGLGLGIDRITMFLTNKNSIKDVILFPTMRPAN
UniProt Q4DA54, 1-478: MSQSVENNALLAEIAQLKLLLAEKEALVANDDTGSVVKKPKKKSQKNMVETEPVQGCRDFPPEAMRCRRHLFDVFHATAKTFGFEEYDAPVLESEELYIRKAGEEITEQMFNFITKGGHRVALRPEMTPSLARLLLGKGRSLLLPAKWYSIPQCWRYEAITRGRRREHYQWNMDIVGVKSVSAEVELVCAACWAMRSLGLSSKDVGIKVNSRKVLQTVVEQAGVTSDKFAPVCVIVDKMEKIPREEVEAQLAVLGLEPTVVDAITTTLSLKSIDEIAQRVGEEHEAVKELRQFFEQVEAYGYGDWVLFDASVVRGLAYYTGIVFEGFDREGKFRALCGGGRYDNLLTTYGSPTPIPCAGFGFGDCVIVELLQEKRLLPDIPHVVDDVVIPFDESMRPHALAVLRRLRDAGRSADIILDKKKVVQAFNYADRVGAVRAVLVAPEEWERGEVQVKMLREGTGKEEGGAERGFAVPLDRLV
UniProt I6X8D2, whole entry: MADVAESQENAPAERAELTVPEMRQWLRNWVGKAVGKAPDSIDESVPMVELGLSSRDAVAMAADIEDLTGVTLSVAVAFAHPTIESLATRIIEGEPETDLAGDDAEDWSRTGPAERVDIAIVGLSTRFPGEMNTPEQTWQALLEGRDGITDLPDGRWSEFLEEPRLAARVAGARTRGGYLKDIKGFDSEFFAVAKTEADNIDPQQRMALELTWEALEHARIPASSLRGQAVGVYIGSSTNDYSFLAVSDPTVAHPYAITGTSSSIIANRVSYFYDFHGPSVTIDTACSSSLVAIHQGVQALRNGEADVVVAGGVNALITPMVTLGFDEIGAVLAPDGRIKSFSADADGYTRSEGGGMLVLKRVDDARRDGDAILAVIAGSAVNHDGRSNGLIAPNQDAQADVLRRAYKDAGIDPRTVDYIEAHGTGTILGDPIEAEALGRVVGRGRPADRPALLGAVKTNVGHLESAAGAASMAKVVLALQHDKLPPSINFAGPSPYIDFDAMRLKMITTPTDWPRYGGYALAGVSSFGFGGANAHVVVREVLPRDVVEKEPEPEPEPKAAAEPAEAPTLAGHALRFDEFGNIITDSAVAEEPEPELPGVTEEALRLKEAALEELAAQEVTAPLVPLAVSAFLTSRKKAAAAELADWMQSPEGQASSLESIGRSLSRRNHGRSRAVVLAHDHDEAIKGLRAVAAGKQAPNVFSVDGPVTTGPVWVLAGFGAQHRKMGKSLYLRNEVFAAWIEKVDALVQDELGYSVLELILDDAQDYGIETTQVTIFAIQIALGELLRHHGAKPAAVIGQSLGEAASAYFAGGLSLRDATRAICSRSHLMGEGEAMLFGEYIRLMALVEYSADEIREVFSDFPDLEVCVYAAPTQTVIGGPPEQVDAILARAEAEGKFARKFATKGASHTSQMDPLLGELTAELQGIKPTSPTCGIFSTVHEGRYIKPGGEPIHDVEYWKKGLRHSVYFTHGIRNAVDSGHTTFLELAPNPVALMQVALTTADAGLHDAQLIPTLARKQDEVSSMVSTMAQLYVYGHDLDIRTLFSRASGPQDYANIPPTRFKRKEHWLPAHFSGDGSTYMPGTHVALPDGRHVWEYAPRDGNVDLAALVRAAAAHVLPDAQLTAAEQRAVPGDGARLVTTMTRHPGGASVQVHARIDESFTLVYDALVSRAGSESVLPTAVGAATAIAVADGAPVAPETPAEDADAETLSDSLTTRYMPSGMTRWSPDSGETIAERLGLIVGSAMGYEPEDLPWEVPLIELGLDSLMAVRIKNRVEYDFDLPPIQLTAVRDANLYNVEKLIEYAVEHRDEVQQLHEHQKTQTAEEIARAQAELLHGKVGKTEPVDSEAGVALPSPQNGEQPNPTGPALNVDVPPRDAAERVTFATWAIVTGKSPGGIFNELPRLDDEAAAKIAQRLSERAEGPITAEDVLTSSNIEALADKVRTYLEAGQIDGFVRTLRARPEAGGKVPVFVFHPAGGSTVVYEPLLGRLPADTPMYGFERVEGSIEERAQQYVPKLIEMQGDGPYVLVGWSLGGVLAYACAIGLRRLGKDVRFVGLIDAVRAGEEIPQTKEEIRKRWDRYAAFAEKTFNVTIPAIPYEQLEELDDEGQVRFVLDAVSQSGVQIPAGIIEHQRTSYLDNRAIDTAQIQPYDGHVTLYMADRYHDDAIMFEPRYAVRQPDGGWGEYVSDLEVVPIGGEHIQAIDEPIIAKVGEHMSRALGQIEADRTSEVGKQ

PfKRS1: 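Enzyme assay of the cytosolic lysyl-tRNA synthetase in 384-well plates, read by luminescence. Target: Lysine-tRNA ligase, Plasmodium falciparum 3D7 (UniProt Q8IDJ8). Tested at 30 µM. Higher reads as stronger inhibition, judged from the few compounds that gave an IC50. About 69,000 compounds were tested under these conditions; 0.071% (about 49) showed 50% or more at least once.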
TcHisRS: 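Histidine-tRNA ligase, Trypanosoma cruzi CL Brener (UniProt Q4DA54). Enzyme assay of histidyl-tRNA synthetase; the read-out is not stated. Concentration: 30 µM. The record gives no direction; compounds that gave an IC50 in retests scored well above the rest, so higher reads as stronger inhibition. About 69,000 compounds were tested under these conditions; 0.045% (about 31) showed 50% or more at least once.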
Pks13 thioesterase: 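Polyketide synthase Pks13, Mycobacterium tuberculosis (UniProt I6X8D2). Enzyme assay of the thioesterase domain of polyketide synthase 13; the read-out is not stated. Compounds at 30 µM. The record gives no direction; the compounds picked for IC50 retests had high values, so higher reads as stronger inhibition. Of about 67,000 compounds tested this way, about 300 (0.46%) reached 50% or more in at least one test.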

Each number is a percent effect as filed. The controls that fix the scale are not given in the record; negative values are as filed. Compounds were drawn at random from those tested, without regard to their results. A dash means the value is not listed here; it may have been measured.

| SMILES | PfKRS1 | TcHisRS | Pks13 thioesterase |
|---|---|---|---|
| `CC(=O)N1CCC(Cc2cnc(-c3c(C)n[nH]c3C)cn2)CC1` | -0.4992 | 2.239 | -25.51 |
| `CC(c1cccc(Cl)c1)N1CCN(S(C)(=O)=O)CC1` (configuration not stated) | 4.062 | 8.28 | -37.98 |
| `Cn1cc(NS(=O)(=O)c2ccc(C(F)(F)F)cc2)ccc1=O` | 0.2109 | 2.924 | -1.929 |
| `CCOC(=O)CNC(=O)NCc1cccn1Cc1ccc(F)cc1` | 6.071 | -1.22 | 28.75 |
| `Cc1ccc2oc(=O)n(CCC(=O)N3CCC4(CN(C)C(=O)O4)C3)c2c1` (configuration not stated) | 0.1312 | 6.173 | -7.027 |
| `CCC(=O)N1CCCCC1c1nc(O)c2c(n1)CN(S(=O)(=O)CC)CC2` (configuration not stated) | -0.84 | 5.747 | - |
| `CCN1CC(C(=O)N2CCN(CCn3cccc3)CC2)CC1=O` (configuration not stated) | 19.39 | -11.96 | 11.47 |
| `Cc1nn(C)c(C)c1NC(=O)CN1CCCC1c1noc(C2CC2)n1` (configuration not stated) | -3.489 | -0.8264 | -12.32 |
| `CCc1nccn1C1CCCN(C(=O)c2cc[nH]n2)C1` (configuration not stated) | -6.951 | 4.167 | 7.534 |
| `Cc1ccsc1C(Cn1ccnc1-c1ccccc1C(=O)O)N(C)C` (configuration not stated) | 3.754 | 2.02 | -15.43 |
| `O=C(COC1CCCC1)N1C[C@@H]2CN(Cc3ccoc3)CCO[C@@H]2C1` | 4.406 | 3.743 | -25.89 |
| `CCc1nc(C2CCCN(c3ncccn3)C2)no1` (configuration not stated) | 3.244 | 4.124 | -8.063 |
| `COCCN(Cc1cccs1)C(=O)c1ccc(=O)n(C)c1` | 0.6859 | 3.448 | 28.32 |
| `CC(CNC(=O)OC(C)(C)C)N(C)C(=O)COc1ccccc1C#N` (configuration not stated) | 0.06723 | 5.941 | 2.099 |
| `CSC(C)Cc1c(-c2ccccc2)ncn1CCCNc1cccnc1` (configuration not stated) | 3.176 | 9.554 | -27.27 |
| `CCN1CCCC(c2c(-c3ccccc3)ncn2CCc2c[nH]cn2)C1` (configuration not stated) | 12.91 | 5.82 | -31.54 |
| `Fc1ccc(-c2nnc(CN3CCOC(Cn4cncn4)C3)o2)cc1` (configuration not stated) | -0.8927 | 0 | -1.188 |
| `COCc1cnc2n1CCN(C(=O)c1cc3cc(Cl)ccc3o1)C2C` (configuration not stated) | 0.6776 | 3.093 | - |
| `O=C(c1ccccc1)N1C[C@@H]2CC[C@H](C1)N(Cc1cc(F)ccc1Cl)C2` | -3.665 | 4.523 | 3.657 |
| `O=C(O)c1ccc2c(c1)C1(CCCCC1)CN2C(=O)c1cccs1` | 8.273 | 0 | -6.4 |
| `NC(=O)CC1CCCCN1C(=O)Cc1cccc(Br)c1` (configuration not stated) | 4.857 | 13.79 | 6.778 |
| `COc1ncc(CN2CCC3(CCCN(CC4CCCCC4)C3)C2)cn1` (configuration not stated) | -6.006 | 13.86 | -4.515 |
| `Cc1csc(CN2CC[C@H]3C[C@H](c4nnc(C)[nH]4)O[C@@H]3C2)n1` | 2.024 | -2.479 | -5.173 |
| `COCC(Nc1nc(N(C)C)nc2c1CCNCC2)c1ccccn1` (configuration not stated) | 4.051 | 1.205 | -15.28 |
| `CN(CCN1CCN(c2ccccc2)CC1)C(=O)Nc1ccccn1` | 5.541 | 7.882 | -31.78 |
| `Cc1ccc2nc(CNCCCN3CCCC3=O)cc(O)c2c1` | -3.521 | 4 | -3.377 |
| `COc1ccccc1N1CCN(C(=O)CCn2nnnc2C)CC1(C)C` | -1.841 | 8.387 | -4.499 |
| `CCC(=O)N1CCC(Cc2ccccc2-c2ccccc2)(C(N)=O)C1` (configuration not stated) | 7.185 | 2.732 | -42.09 |
| `Cc1n[nH]c(C2CN(CCNC3CCCCC3)CCO2)n1` (configuration not stated) | 9.542 | 6.186 | -21.52 |
| `O=C(NCCN1CCCCC1)C(c1ccccc1)N1CCCC1` (configuration not stated) | 3.49 | 10.23 | 4.879 |
| `CC(C)N1CCCC2(CCN(C(=O)CCCn3cccn3)C2)C1=O` (configuration not stated) | 8.477 | 1.02 | -7.419 |
| `CC[C@@H](CO)Nc1nccc(-c2c[nH]c3cc(C(=O)OC)ccc23)n1` | 3.46 | 10.17 | 44.11 |
| `COCCN(C)C(=O)c1ccccc1-n1cccn1` | -0.774 | 1.064 | -9.292 |
| `CCc1nc(CN2CCC(C(=O)N(C)C)CC2)cs1` | 4.756 | 0 | -2.146 |
| `CC(C)NC1CCc2[nH]c(=O)ccc2C1` (configuration not stated) | 3.571 | 8.38 | 2.337 |
| `CCN(CC)c1ncnc2c1CCN(c1ccc(C)nn1)CC2` | 6.197 | 2.21 | 6.377 |
| `CCn1cc(N2Cc3nc(N4CCCC4)ncc3C2=O)cn1` | 0.2171 | 2.609 | 1.032 |
| `CCN(Cc1nc2c(cnn2C)c(=O)[nH]1)Cc1cccs1` | 1.773 | -0.3774 | -17.01 |
| `CC(=O)N1CCO[C@@H]2CN(C(=O)NCc3ccccc3)CC[C@@H]2C1` | 3.037 | 6.349 | -30.54 |
| `O=C(NC1CCC(N2C(=O)CCC2=O)CC1)c1c[nH]c2ccccc12` (configuration not stated) | -4.028 | 1.622 | 2.579 |
| `CC(C)N(CC(N)=O)CC(=O)N(C1=CCCCC1)C1CC1` | 1.51 | 5.263 | 1.874 |

For reference, 5 entries once more:

| SMILES | PfKRS1 | TcHisRS | Pks13 thioesterase |
|---|---|---|---|
| `Cn1cc(NS(=O)(=O)c2ccc(C(F)(F)F)cc2)ccc1=O` | 0.2109 | 2.924 | -1.929 |
| `CCC(=O)N1CCC(Cc2ccccc2-c2ccccc2)(C(N)=O)C1` (configuration not stated) | 7.185 | 2.732 | -42.09 |
| `CC[C@@H](CO)Nc1nccc(-c2c[nH]c3cc(C(=O)OC)ccc23)n1` | 3.46 | 10.17 | 44.11 |
| `O=C(NCCN1CCCCC1)C(c1ccccc1)N1CCCC1` (configuration not stated) | 3.49 | 10.23 | 4.879 |
| `Fc1ccc(-c2nnc(CN3CCOC(Cn4cncn4)C3)o2)cc1` (configuration not stated) | -0.8927 | 0 | -1.188 |

Measurements from “University of Dundee, Small-Polar-MMV Screening Library” (2021), ChEMBL document CHEMBL3988442.